In article PMC10163288:
The other results are listed elsewhere or left out.

B1: il10ra_site1_normal_mot_HHH_b1_04065_000000255_0001_41_56_H_._HHH_b1_08168_0001_0000100006_0000001_0 (protein)
chain: SSSSSEEEELEELLEQLEELARRGDERKFVELFVRVSRLALRARDEEIVRLLDRLAIEFYSSSSS
B2: il10ra_site1_normal_mot_HHH_b1_05357_000000034_0001_23_39_H_._HHH_b2_03643_0002_0000100007_0000001_0_af2pred_0001 (protein)
chain: SSSSSEEEELEKRLEEEIRRLIEEGNPEKARELIRELARLAAELKDKELAHLVIRLFALLDSSSS
B3: il10ra_site1_normal_mot_HHH_b2_03183_af2_000000055_0001_40_56_H_._ems_3hM_2680_0001_0000500016_0000002_0 (protein)
chain: SSDEKQKEAEELARAAARLVEQATDEKTKRALLLAIELLLRLADDEELRKILEEILEEAEELSSS
B4: il10ra_site1_normal_mot_HHH_b2_06497_000000202_0001_1_20_H_._HHH_b2_07580_0001_0000200006_0000001_0_af2pred_0001 (protein)
chain: SSSSSSSLNERARELLEEALKIEDEEEREEVLEEAKHLAEEGNNLILRIAIEFVAKDKSSSSSSS
B5: il10ra_site1_normal_mot_HHH_b1_05099_000000057_0001_40_58_H_._HHH_b1_00405_0001_0000200010_0000001_0 (protein)
chain: SSSSDEEEIEEIVEFAEEVAKEIPDEERRRALEAQARFVERLGDRDAAENLRRIAEAFLKSSSSS
B6: il10ra_site1_normal_mot_HHH_b1_00999_000000080_0001_41_55_H_._HHH_b2_05773_0001_0000500024_0000002_0 (protein)
chain: SSSSSSEEEERVKELNEEAEQITDPREFFEVLLEALRLAYELKNAELLREIWEIVQKFGSSSSSS
B7: il10ra_site1_normal_mot_HHH_b1_06994_000000193_0001_40_55_H_._HHH_b2_01218_0001_0000700034_0000002_0 (protein)
chain: SSSSSSNEEIAVELLLLAAKKIEDPELRRATLRLAEQIAKELGDEELKRLIEEVEEELSSSSSSS
B8: il10ra_site1_normal_mot_b26a303360aa2756ef5b79665ce52f45_0001_000000179_0001_1_11_H_._HHH_b1_08300_0001_0000100007_0000001_0_af2pred_0001 (protein)
chain: SSSSSKVEELVELIRKALELLRNGNPEEAQEVLEEAIKLAEEANNPVARVILELLFKQVNSSSSS
B9: il10ra_site1_normal_mot_HHH_b1_05088_af2_000000046_0001_20_36_H_._HHH_b2_02810_0001_0000400026_0000001_0 (protein)
chain: SSSSDEEVEEEVERLLEEAKQIEDAEEAYKALRKAIELAAENQDRELAELIMRVIQEWLNSSSSS
B10: il10ra_site1_normal_mot_HHH_b1_06837_000000150_0001_20_37_H_._HHH_b1_07718_0001_0000100001_0000002_0 (protein)
chain: SSSSSREISRRVYELLRRASELDLEGDPEEARELLEEAHELAEEGNNENALHNVEFLLRLASSSS
B11: il10ra_site1_sap_22_mot_HHH_b1_02665_000000293_0001_1_18_H_._5450ce7872ebe41ebd4d2ec004e2dcf6_0001_af2_0001_0000100001_0000001_1_0001 (protein)
chain: SSSSDEEKEALKLAAEALRAAYQKSDEEALQLLWRLIHALAREGDPELVEELEELAERIINSSSS
B12: il10ra_site1_normal_mot_HHH_b2_07579_000000275_0001_1_19_H_._HHH_b1_02421_0001_0000100004_0000001_0 (protein)
chain: SSSSSEEVQEVMEILREVAELLNNGDREEAERLAEEALRLAEEANNPVLRFAAEHLLRDVGSSSS
B13: il10ra_site1_normal_mot_HHH_b1_07835_af2_000000063_0001_1_16_H_._HHH_b1_06060_af2_0001_0000600040_0000001_0 (protein)
chain: SSSSSEEVQELLEELEELLEKNDEERFAQLFARIARRVYELRDEEAAEILIRLAAEFLELRSSSS
B14: il10ra_site1_sap_21_mot_HHH_b2_03328_af2_000000127_0001_1_19_H_._HHH_b2_05051_0001_0000300026_0000002_0_0001_af2pred_0001 (protein)
chain: SSSSSDEERLELALRIIEWAIEVGDEEAARFLIRAARELAERLGNEEILERLEELLERLNSSSSS
B15: il10ra_site1_normal_mot_8756ee2cf497b5429c717dfc0c0bcfd6_0001_000000186_0001_1_13_H_._HHH_b2_00413_0001_0000300015_0000001_0_af2pred_0001 (protein)
chain: SSSSSSDEVVRRVKELIEEALHIDDEEEAREVLEEALELAEEGNNAVLRAVLKYLLELLNSSSSS
B16: il10ra_site1_sap_15_mot_HHH_b2_00943_af2_000000149_0001_1_17_H_._HHH_b1_02213_af2_0001_0000400008_0000001_0_0001_af2pred_0001 (protein)
chain: SSSSDEEERRIEELEEEIERLRREGDRERLIRLLYEAFKIAVELDDEEALEFILRILRELLSSSS
B17: il10ra_site1_normal_mot_HHH_b2_07535_000000205_0001_20_36_H_._HHH_b1_08712_0001_0000100008_0000003_0 (protein)
chain: SSSSSSEEEEVRELLEEAERIPDPEERKRLLARAAYAAARAGDEELWQLVMEVYFRLSNSSSSSS
B18: il10ra_site1_sap_18_mot_HHH_b2_07521_000000141_0001_20_37_H_._HHH_b2_07925_0001_0000200019_0000002_0_0001 (protein)
chain: SSSSTVLERSVEFLLKAVEELLELGNEERARALLEALLRLLEEANDEELTQEVRELLEELSSSSS

Each binder was assayed against il10ra, Q13651 (assay: yeast display titration).

| Binder | apparent Kd |
| --- | --- |
| B1 | inactive: no binding seen |
| B2 | inactive: no binding seen |
| B3 | inactive: no binding seen |
| B4 | inactive: no binding seen |
| B5 | inactive: no binding seen |
| B6 | inactive: no binding seen |
| B7 | inactive: no binding seen |
| B8 | inactive: no binding seen |
| B9 | inactive: no binding seen |
| B10 | inactive: no binding seen |
| B11 | inactive: no binding seen |
| B12 | inactive: no binding seen |
| B13 | inactive: no binding seen |
| B14 | inactive: no binding seen |
| B15 | inactive: no binding seen |
| B16 | inactive: no binding seen |
| B17 | inactive: no binding seen |
| B18 | inactive: no binding seen |

A portion from the list above, for reference:

| Binder | apparent Kd |
| --- | --- |
| B9 | inactive: no binding seen |
| B10 | inactive: no binding seen |
| B11 | inactive: no binding seen |
